PMC11402782
These are yes or no findings as the source states them, for the method shown. In cells and extracts the contact can be indirect. These calls come from enrichment with a bait or labelling near it, and not all partners need be listed. Sequences can lack the tags named with a protein.

Protein sequences, listed by entry. Tags and fused reporters are not part of them. Lines headed by an entry give the natural chain unless they say otherwise; changes in a name come on top. Chains listed by the source or under a name are the forms on record and can include a tag or linker.
YFP-tagged PML-V (P29590, form named): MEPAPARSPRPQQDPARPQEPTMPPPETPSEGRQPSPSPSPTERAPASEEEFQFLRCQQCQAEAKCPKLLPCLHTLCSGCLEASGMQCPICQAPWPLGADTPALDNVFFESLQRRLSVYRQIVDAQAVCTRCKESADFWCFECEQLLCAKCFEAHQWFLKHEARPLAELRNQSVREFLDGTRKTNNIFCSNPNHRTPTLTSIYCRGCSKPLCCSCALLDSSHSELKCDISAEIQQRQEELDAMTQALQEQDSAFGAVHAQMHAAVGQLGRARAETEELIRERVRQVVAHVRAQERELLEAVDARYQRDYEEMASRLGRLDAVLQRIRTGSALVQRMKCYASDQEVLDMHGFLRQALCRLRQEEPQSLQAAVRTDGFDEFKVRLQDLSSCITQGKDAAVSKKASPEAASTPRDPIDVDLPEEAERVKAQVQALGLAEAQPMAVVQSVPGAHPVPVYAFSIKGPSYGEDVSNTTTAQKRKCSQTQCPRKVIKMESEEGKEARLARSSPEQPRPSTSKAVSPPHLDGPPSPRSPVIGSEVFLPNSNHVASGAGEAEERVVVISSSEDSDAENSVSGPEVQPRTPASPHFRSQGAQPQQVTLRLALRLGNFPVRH

Target: YFP-tagged PML-V (UniProt P29590)
Assay: affinity purification with mass spectrometry; U2OS PML-KO/YFP–PML cells in SILAC medium, 1 µM arsenic for 2 h (heavy) or untreated (light); PML bodies enriched with GFP nanobody crosslinked to magnetic beads; a single experiment

binding: binds
B1: TOPORS (endogenous, U2OS PML-KO/YFP–PML cells) (protein, UniProt Q9NS56 1-1045)
chain: MGSQPPLGSPLSREEGEAPPPAPASEGRRRSRRVRLRGSCRHRPSFLGCRELAASAPARPAPASSEIMASAAKEFKMDNFSPKAGTSKLQQTVPADASPDSKCPICLDRFDNVSYLDRCLHKFCFRCVQEWSKNKAECPLCKQPFDSIFHSVRAEDDFKEYVLRPSYNGSFVTPDRRFRYRTTLTRERNASVYSPSGPVNRRTTTPPDSGVLFEGLGISTRPRDVEIPQFMRQIAVRRPTTADERSLRKIQEQDIINFRRTLYRAGARVRNIEDGGRYRDISAEFFRRNPACLHRLVPWLKRELTVLFGAHGSLVNIVQHIIMSNVTRYDLESQAFVSDLRPFLLNRTEHFIHEFISFARSPFNMAAFDQHANYDCPAPSYEEGSHSDSSVITISPDEAETQELDINVATVSQAPWDDETPGPSYSSSEQVHVTMSSLLNTSDSSDEELVTGGATSQIQGVQTNDDLNNDSDDSSDNCVIVGFVKPLAERTPELVELSSDSEDLGSYEKMETVKTQEQEQSYSSGDSDVSRCSSPHSVLGKDEQINKGHCDSSTRIKSKKEEKRSTSLSSPRNLNSSVRGDRVYSPYNHRHRKRGRSRSSDSRSQSRSGHDQKNHRKHHGKKRMKSKRSRSRESSRPRGRRDKKRSRTRDSSWSRRSQTLSLSSESTSRSRSRSSDHGKRRSRSRNRDRYYLRNNYGSRYKWEYTYYSRNKDRDGYESSYRRRTLSRAHYSRQSSSPEFRVQSFSERTNARKKNNHSERKYYYYERHRSRSLSSNRSRTASTGTDRVRNEKPGGKRKYKTRHLEGTNEVAQPSREFASKAKDSHYQKSSSKLDGNYKNESDTFSDSRSSDRETKHKRRKRKTRSLSVEIVYEGKATDTTKHHKKKKKKHKKKHKKHHGDNASRSPVVITIDSDSDKDSEVKEDTECDNSGPQDPLQNEFLAPSLEPFETKDVVTIEAEFGVLDKECDIATLSNNLNNANKTVDNIPPLAASVEQTLDVREESTFVSDLENQPSNIVSLQTEPSRQLPSPRTSLMSVCLGRDCDMS
